# Test results reported in the supplement of paper PMC8728848.
# Some of the results follow.
# How the values were obtained:
# Test in all cases: glycan array binding signal (z-score within array); higher = stronger binding
# Conditions in all cases: glycan notation: IUPAC condensed, linker removed
# [1] = biological target: Man(a1-3)[Man(a1-6)]Man(a1-6)[Man(a1-3)]Man(b1-4)GlcNAc(b1-4)GlcNAc
# Procedure, shortened: (§1)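 Glycan array binding is given as a within-array Z-score, which can be read as non-binding when negative. The arrays, 3228 of them, came from the Consortium for Functional Glycomics database and were retained only where the protein sequence was available. Z-scores were averaged across arrays of the same protein sequence at different concentrations or buffers and across linkers.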
# [2] = biological target: Man(a1-3)[Man(a1-6)]Man(b1-4)GlcNAc(b1-4)GlcNAc
# Procedure, shortened: as §1
# Man(b1-4)GlcNAc = biological target: Man(b1-4)GlcNAc
# Procedure, shortened: as §1
# Neu5Ac(a2-3)Gal = biological target: Neu5Ac(a2-3)Gal
# Procedure, shortened: as §1
# [3] = biological target: Neu5Ac(a2-3)Gal(b1-3)GalNAc
# Procedure, shortened: as §1
# [4] = biological target: Neu5Ac(a2-3)Gal(b1-3)GalNAc(b1-3)Gal(a1-4)Gal(b1-4)Glc
# Procedure, shortened: as §1
# [5] = biological target: Neu5Ac(a2-3)Gal(b1-3)GalNAc(b1-4)[Neu5Ac(a2-3)]Gal(b1-4)Glc
# Procedure, shortened: as §1
# [6] = biological target: Neu5Ac(a2-3)Gal(b1-3)GalNAc6S
# Procedure, shortened: as §1
# [7] = biological target: Neu5Ac(a2-3)Gal(b1-3)GlcNAc
# Procedure, shortened: as §1
# [8] = biological target: Neu5Ac(a2-3)Gal(b1-3)GlcNAc(b1-3)Gal(b1-3)GlcNAc
# Procedure, shortened: as §1
# [9] = biological target: Neu5Ac(a2-3)Gal(b1-3)GlcNAc(b1-3)Gal(b1-4)GlcNAc
# Procedure, shortened: as §1
# [10] = biological target: Neu5Ac(a2-3)Gal(b1-3)GlcNAc6S
# Procedure, shortened: as §1
# [11] = biological target: Neu5Ac(a2-3)Gal(b1-3)[Fuc(a1-4)]GlcNAc
# Procedure, shortened: as §1
# [12] = biological target: Neu5Ac(a2-3)Gal(b1-3)[Fuc(a1-4)]GlcNAc(b1-3)Gal(b1-4)[Fuc(a1-3)]GlcNAc
# Procedure, shortened: as §1
# [13] = biological target: Neu5Ac(a2-3)Gal(b1-3)[Neu5Ac(a2-3)Gal(b1-4)]GlcNAc
# Procedure, shortened: as §1
# [14] = biological target: Neu5Ac(a2-3)Gal(b1-3)[Neu5Ac(a2-6)]GalNAc
# Procedure, shortened: as §1
# Neu5Ac(a2-3)Gal(b1-4)Glc = biological target: Neu5Ac(a2-3)Gal(b1-4)Glc
# Procedure, shortened: as §1
# [15] = biological target: Neu5Ac(a2-3)Gal(b1-4)GlcNAc
# Procedure, shortened: as §1
# [16] = biological target: Neu5Ac(a2-3)Gal(b1-4)GlcNAc(b1-3)Gal(b1-3)GlcNAc
# Procedure, shortened: as §1
# [17] = biological target: Neu5Ac(a2-3)Gal(b1-4)GlcNAc(b1-3)Gal(b1-4)GlcNAc
# Procedure, shortened: as §1
# [18] = biological target: Neu5Ac(a2-3)Gal(b1-4)GlcNAc(b1-3)Gal(b1-4)GlcNAc(b1-3)Gal(b1-4)GlcNAc
# Procedure, shortened: as §1
# [19] = biological target: Neu5Ac(a2-3)Gal(b1-4)GlcNAc(b1-3)Gal(b1-4)[Fuc(a1-3)]GlcNAc
# Procedure, shortened: as §1
# [20] = biological target: Neu5Ac(a2-3)Gal(b1-4)GlcNAc(b1-6)[Gal(b1-3)]GalNAc
# Procedure, shortened: as §1
# [21] = biological target: Neu5Ac(a2-3)Gal(b1-4)GlcNAc6S
# Procedure, shortened: as §1
# [22] = biological target: Neu5Ac(a2-3)Gal(b1-4)[Fuc(a1-3)]GlcNAc
# Procedure, shortened: as §1
# [23] = biological target: Neu5Ac(a2-3)Gal(b1-4)[Fuc(a1-3)]GlcNAc(b1-3)Gal
# Procedure, shortened: as §1
# [24] = biological target: Neu5Ac(a2-3)Gal(b1-4)[Fuc(a1-3)]GlcNAc(b1-3)Gal(b1-4)GlcNAc
# Procedure, shortened: as §1
# [25] = biological target: Neu5Ac(a2-3)Gal(b1-4)[Fuc(a1-3)]GlcNAc(b1-3)Gal(b1-4)[Fuc(a1-3)]GlcNAc(b1-3)Gal(b1-4)[Fuc(a1-3)]GlcNAc
# Procedure, shortened: as §1
# [26] = biological target: Neu5Ac(a2-3)Gal(b1-4)[Fuc(a1-3)]GlcNAc6S
# Procedure, shortened: as §1
binder,measurement,setting,value
"KCR (Mus musculus), P70194 (protein) MKEAELNRDMARYCTDNQCVSLQPQGLGPKSAALMAPRTLRHVQVILALMVVTVIFSLLALFVVASQPWRPEWNKEPPSLLLRGSNNSGHDNHSQFVRETEMQVAIQRLRDYEENSSSCHKEVQILKYQMDNVSSLVQLLGSHLEDVNADILQTKDVLKESGALALETQALRSSLEVASADIHSLRGDLEKANAMTSQTRGLLKSSTENTSAELHVLGRGLEEAQSEIQALRGSLQSANDLSSQTQGFLQHSMDNISAQIQTVRDGMERAGEKMNSLKKELETLTAQTQKANGHLEQTDAQIQGLKAELKSTSSLNSRIEVVNGQMKDASRELQTLRRDLSDVSALKSNVQMLQSNLQRAKTEMQTLKADLQATKALTAKIQGEQNRLGALQEAVAAQKQEQKTQNQVLQLIAQNWKYFNGNFYYFSRDKKPWREAEKFCTSQGAHLASVTSQEEQAFLVQTTSSGDHWIGLTDQGTEGIWRWVDGTPFNNAQSKGFWGKNQPDNWRHRNGEREDCVHVRQQWNDMACGSSYPWVCKKSTGWSAARVG",glycan array binding signal (z-score),[1],-0.719
same,glycan array binding signal (z-score),[2],-0.684
same,glycan array binding signal (z-score),Man(b1-4)GlcNAc,-0.818
same,glycan array binding signal (z-score),Neu5Ac(a2-3)Gal,0.022
same,glycan array binding signal (z-score),[3],-0.609
same,glycan array binding signal (z-score),[4],-0.593
same,glycan array binding signal (z-score),[5],-0.617
same,glycan array binding signal (z-score),[6],-0.27
same,glycan array binding signal (z-score),[7],-0.592
same,glycan array binding signal (z-score),[8],-0.446
same,glycan array binding signal (z-score),[9],-0.239
same,glycan array binding signal (z-score),[10],-0.375
same,glycan array binding signal (z-score),[11],-0.561
same,glycan array binding signal (z-score),[12],-0.113
same,glycan array binding signal (z-score),[13],-0.401
same,glycan array binding signal (z-score),[14],-0.597
same,glycan array binding signal (z-score),Neu5Ac(a2-3)Gal(b1-4)Glc,-0.366
same,glycan array binding signal (z-score),[15],-0.698
same,glycan array binding signal (z-score),[16],-0.661
same,glycan array binding signal (z-score),[17],-0.697
same,glycan array binding signal (z-score),[18],-0.316
same,glycan array binding signal (z-score),[19],-0.539
same,glycan array binding signal (z-score),[20],-0.286
same,glycan array binding signal (z-score),[21],-0.101
same,glycan array binding signal (z-score),[22],-0.124
same,glycan array binding signal (z-score),[23],-0.692
same,glycan array binding signal (z-score),[24],0.119
same,glycan array binding signal (z-score),[25],-0.25
same,glycan array binding signal (z-score),[26],0.773

# Laid out differently: results already given
binder | measurement | setting | value
KCR (Mus musculus), P70194 (protein) MKEAELNRDMARYCTDNQCVSLQPQGLGPKSAALMAPRTLRHVQVILALMVVTVIFSLLALFVVASQPWRPEWNKEPPSLLLRGSNNSGHDNHSQFVRETEMQVAIQRLRDYEENSSSCHKEVQILKYQMDNVSSLVQLLGSHLEDVNADILQTKDVLKESGALALETQALRSSLEVASADIHSLRGDLEKANAMTSQTRGLLKSSTENTSAELHVLGRGLEEAQSEIQALRGSLQSANDLSSQTQGFLQHSMDNISAQIQTVRDGMERAGEKMNSLKKELETLTAQTQKANGHLEQTDAQIQGLKAELKSTSSLNSRIEVVNGQMKDASRELQTLRRDLSDVSALKSNVQMLQSNLQRAKTEMQTLKADLQATKALTAKIQGEQNRLGALQEAVAAQKQEQKTQNQVLQLIAQNWKYFNGNFYYFSRDKKPWREAEKFCTSQGAHLASVTSQEEQAFLVQTTSSGDHWIGLTDQGTEGIWRWVDGTPFNNAQSKGFWGKNQPDNWRHRNGEREDCVHVRQQWNDMACGSSYPWVCKKSTGWSAARVG | glycan array binding signal (z-score) | [23] | -0.692
same | glycan array binding signal (z-score) | [24] | 0.119
